For 27 compounds, log results are on record in the supplement of paper PMC7024190.

Molecules are shown by their SMILES. This is one part of the list. This data set is noisy: repeats of one test often differ as much as different tests do.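 A first-round screen of about ten thousand compounds sought those raising reporter output, using human embryonic kidney cells briefly transfected with a plasmid carrying a Renilla luciferase gene driven by the HSV-TK promoter.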

The test has as its system HEK 293FT. The test can be described thus: log relative Renilla luciferase luminescence (reporter expression vs reference, reference not stated) (log (base not stated)); higher = higher recombinant reporter expression. Particulars: 10 µM; time after transfection 48 h. On the procedure: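 HEK 293FT cells transiently transfected with pRL-TK (Renilla luciferase) were treated with compounds at 10 uM and luminescence was read about 42 h later. Values are log relative Renilla luminescence (log base and reference not stated). Single-pass screen; 2080 natural products library.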
In the case of `CC(=O)OC[C@H](Cc1ccccc1)NC(=O)[C@H](Cc1ccccc1)NC(=O)c1ccccc1` [Asperglaucide], the log was -0.188. The same measure for `O=C1CCC(O)(CCO)CC1` [Cleroindicin B]: -0.134. The same measure for `CC(C)(O)[C@@H]1CC[C@@](C)([C@H]2CC[C@]3(C)[C@@H]2CC[C@@H]2[C@@]4(C)CC[C@@H](O)C(C)(C)[C@@H]4CC[C@]23C)O1` [Cabraleadiol]: 0.0581. The same measure for `C=C(C)[C@@H]1CC[C@@H]2C(=CC[C@]3(C)/C(=C(/C)CC/C=C(/C)C(=O)O)CC[C@@]23C)[C@@]1(C)CCC(=O)O` [Kadsuracoccinic acid A]: -0.0617; for `C=CC(C)(C)c1c(O)cc2oc3c(CC=C(C)C)c(O)c(O)cc3c(=O)c2c1O` [Cudraxanthone L]: 0.151; for `COC(=O)C1=CCC[C@@H]2[C@@](C)(CCC3=CC(=O)OC3)[C@H](C)CC[C@@]12C` [Clerodermic acid methyl ester]: 0.085. Turning to `COc1ccccc1[C@@H]1CC(=O)c2c(OC)cc(O)c(OC)c2O1` [7-Hydroxy-2',5,8-trimethoxyflavanone], the log worked out at 0.317.

For the compound `CC(=O)OC[C@H]1O[C@@H](Oc2c(-c3ccc(O)cc3)oc3cc(O[C@@H]4O[C@@H](C)[C@H](O)[C@@H](O)[C@H]4O)cc(O)c3c2=O)[C@H](O)[C@@H](O)[C@@H]1O` [Kaempferol 3-O-(6''-O-acetyl)glucoside-7-O-rhamnoside], the log is -0.0495. The same measure for `CC1(C)[C@@H](O)CC[C@@]2(C)[C@H]1CC[C@@]1(C)CC3=CC[C@H]4C(C)(C)[C@@H](O)CC[C@]4(C)[C@H]3CC[C@@H]12` [Serratenediol]: -0.607. The same measure for `CC1CCC2(C(=O)O)CCC3(C)C(=CCC4C5(C)CC(O)C(O)C(C)(CO)C5CCC43C)C2C1C` (configuration not stated) [2,24-Dihydroxyursolic acid]: -0.142; for `COc1cc2oc(=O)ccc2cc1CC=C(C)C` [Suberosin]: -0.117; for `CCOC(/C=C/c1ccccc1)=C1\C(=O)C=C(OC)C1=O` [Ethyllucidone]: 0.0912. The same measure for `C=C(C(=O)O)[C@@H]1CC[C@@]2(C)CCCC(=C)[C@]2(O)C1` [5alpha-Hydroxycostic acid]: -0.071; for `COc1ccc2c(cc3c4c(cc5c(c42)OCO5)CCN3C)c1OC` [Dehydrocrebanine]: -0.0825. As for `CCCCCCCc1cc(=O)c2ccccc2n1C` [1-Methyl-2-heptyl-4(1H)-quinolinone], the log is -0.028.

Turning to `C=C1C(=O)O[C@H]2C=C(C)[C@@H]3CC[C@](C)(O)[C@@H]3C[C@H]12` [4-Epi-isoinuviscolide], the log was -0.123.

On to `CC(=O)Oc1cc(O)c2c(c1)OC(c1c(OC(C)=O)cccc1OC(C)=O)CC2=O` (configuration not stated) [2',6',7-Triacetoxy-5-hydroxyflavanone], for which the log was 0.12. The same measure for `C=Cc1ncc(OC)c2c1[nH]c1c(OC)cccc12` [Dehydrocrenatidine]: 0.046; for `C[C@@H]1CC[C@@]2(C)C(C(=O)O)=CCC[C@@H]2[C@]1(C)CCc1ccoc1` [Hardwickiic acid]: 0.132; for `COc1cc([C@H]2OC[C@H]3[C@@H]2CO[C@@H]3c2cc(OC)c(O)c(OC)c2)cc(OC)c1O` (racemic) [DL-Syringaresinol]: -0.117. The same measure for `Oc1cc(O)c2c(c1)O[C@H](c1cc(O)c(O)c(O)c1)[C@H](O)C2` [3,3',4',5,5',7-Hexahydroxyflavan]: 0.272; for `COc1cc2c(c(O)c1OC)-c1c(cc3c(c1OC)OCO3)CC(C)C(C)C2` (stereo not drawn) [R(+)-Gomisin M1]: -0.331; for `CCCCCCCCCCCCCCCCCCCCCCCCCCCC(=O)OCCc1ccc(O)cc1` [Bongardol]: -0.142. The same measure for `Cc1cc(OC(=O)c2c(C)cc(OC(=O)c3c(C)cc(O)cc3O)cc2O)cc(O)c1C(=O)O` [Gyrophoric acid]: 0.16; for `C=C(C)[C@@H]1CC[C@]2(CO)CC[C@]3(C)[C@H](CC[C@@H]4[C@@]5(C)CC[C@H](OC(=O)CCCCCCCCCCCCCCC)C(C)(C)[C@@H]5CC[C@]43C)[C@@H]12` [Betulin palmitate]: -0.108. In the case of `C/C=C1\CN2CCc3c([nH]c4ccccc34)C2CC1C(Cc1c[n+]2c(c3[nH]c4ccccc4c13)CC1C(C(=O)OC)=COC(C)C1C2)C(=O)OC` (configuration not stated) [Serpentinine], the log is -0.256. The same measure for `C=C(C)[C@@H]1CC[C@]2(C(=O)OC)CC[C@]3(CO)[C@H](CC[C@@H]4[C@@]5(C)CC[C@@H](OC(C)=O)C(C)(C)[C@@H]5CC[C@]43C)[C@@H]12` [3-Acetoxy-27-hydroxy-20(29)-lupen-28-oic acid methyl ester]: -0.445.
